Results on one substance are retold here after publication PMC8361268.

For the assay, the target named is saSrtA_(pneumoniae): Staphylococcus aureus sortase A with the β7–β8 loop residues from Streptococcus pneumoniae SrtA (Staphylococcus aureus) (UniProt Q2FV99). Briefly: SEC; […] (0.05 M Tris pH 7.5, 0.15 M NaCl, 0.001 M TCEP); both purified. Background: In gel filtration, larger molecules generally elute earlier.

Results are given in words; binding and its absence hold for the method and conditions named.

“saSrtA_(pneumoniae): Staphylococcus aureus sortase A with the β7–β8 loop residues from Streptococcus pneumoniae SrtA (from UniProt Q2FV99) (enzyme)”: the binding result is “no binding”.
